Results reported in article PMC10231130.
These are yes or no findings as the source states them, for the method shown. Binding calls can cover weak binding; strength is not graded here.

The chains behind the UniProt entries cited, without tags or fusion partners. Where a name states a change or a piece, a line headed by the entry shows the natural chain unless it says otherwise.
UniProt P25223: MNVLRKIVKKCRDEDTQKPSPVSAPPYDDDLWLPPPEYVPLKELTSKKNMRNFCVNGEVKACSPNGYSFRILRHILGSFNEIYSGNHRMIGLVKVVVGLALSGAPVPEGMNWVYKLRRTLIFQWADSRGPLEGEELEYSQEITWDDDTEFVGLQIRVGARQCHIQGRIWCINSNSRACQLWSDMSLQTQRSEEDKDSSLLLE
UniProt Q8WUM4: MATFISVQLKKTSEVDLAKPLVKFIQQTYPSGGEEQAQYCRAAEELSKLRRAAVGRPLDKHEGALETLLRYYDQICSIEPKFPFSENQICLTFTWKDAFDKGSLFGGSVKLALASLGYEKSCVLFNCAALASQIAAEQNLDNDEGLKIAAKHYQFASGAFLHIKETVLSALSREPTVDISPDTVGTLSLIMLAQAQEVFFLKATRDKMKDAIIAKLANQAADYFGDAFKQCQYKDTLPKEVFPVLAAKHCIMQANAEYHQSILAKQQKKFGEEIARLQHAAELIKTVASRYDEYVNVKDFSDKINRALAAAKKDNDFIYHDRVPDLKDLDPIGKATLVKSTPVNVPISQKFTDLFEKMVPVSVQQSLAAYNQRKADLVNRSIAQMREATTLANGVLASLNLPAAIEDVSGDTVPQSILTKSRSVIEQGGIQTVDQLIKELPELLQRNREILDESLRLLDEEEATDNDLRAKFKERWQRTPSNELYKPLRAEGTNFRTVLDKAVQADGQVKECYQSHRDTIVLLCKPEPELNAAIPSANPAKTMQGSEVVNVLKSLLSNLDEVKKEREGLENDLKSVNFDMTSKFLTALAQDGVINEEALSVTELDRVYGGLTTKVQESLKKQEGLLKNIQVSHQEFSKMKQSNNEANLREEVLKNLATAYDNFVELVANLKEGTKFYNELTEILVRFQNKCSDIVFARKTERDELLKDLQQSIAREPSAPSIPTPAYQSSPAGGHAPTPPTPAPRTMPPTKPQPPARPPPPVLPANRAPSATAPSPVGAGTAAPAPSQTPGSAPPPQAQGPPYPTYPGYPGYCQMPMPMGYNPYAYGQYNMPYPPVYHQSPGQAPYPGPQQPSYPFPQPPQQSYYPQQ
UniProt Q99816: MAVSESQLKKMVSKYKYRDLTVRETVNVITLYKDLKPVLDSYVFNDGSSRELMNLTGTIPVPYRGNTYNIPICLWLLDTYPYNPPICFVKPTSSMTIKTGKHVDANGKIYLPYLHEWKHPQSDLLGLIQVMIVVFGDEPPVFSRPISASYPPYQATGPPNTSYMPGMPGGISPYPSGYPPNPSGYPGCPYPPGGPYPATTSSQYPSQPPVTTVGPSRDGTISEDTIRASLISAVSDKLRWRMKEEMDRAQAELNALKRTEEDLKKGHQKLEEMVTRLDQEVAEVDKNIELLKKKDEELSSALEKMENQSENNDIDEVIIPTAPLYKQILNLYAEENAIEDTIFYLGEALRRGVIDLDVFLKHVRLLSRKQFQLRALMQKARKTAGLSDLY

How the values were obtained:
[1] = target: recombinant RABV M, His-tagged (rabies virus (strain not stated for the construct)) (UniProt P25223); assay: ELISA; both purified
[2] = target: recombinant human Alix, His-tagged (human) (UniProt Q8WUM4); assay: ELISA; both purified

Substance | binding [1] | binding [2]
recombinant TSG-UEV (N-terminal part of TSG101), His-tagged (from UniProt Q99816) (domain or fragment) | binds | binds
recombinant TSG-ΔUEV (C-terminal part of TSG101), FLAG-tagged (from UniProt Q99816) (domain or fragment) | binds | 
